PubChem BioAssay AID504786 | Drosophila RNAi Screening Center, 2011
In all, the deposit lists about 21,000 reagents; this is a random part of those that have a named target and a result. 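Primary screen; positive scores mean lost reporter signal, so the sign may be inverted from the usual convention.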 Names joined by + are all predicted targets of the reagent. Not all columns of the deposit are shown.

Assay: 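Knock-downs reducing HIF reporter induction by the iron chelator DFO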 (primary screen)
Cells: Drosophila S2 cells with a stable HIF luciferase reporter
Knock-down reagent: long dsRNA against Drosophila genes, about 0.2 µg dsRNA per well of a 384-well plate
Duration: three days of knock-down, then 20 h of DFO before reading
Conditions: desferrioxamine (DFO) at 100 µM, an iron chelator that mimics hypoxia, for 20 h
Detection: 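HIF reporter luminescence in cells given 100 µM DFO for 20 h, using the mouse ldh-a hypoxia-response element, scored as per-plate z-scores; higher means greater loss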
Direction: z-score: higher = stronger loss of HIF reporter signal

Silencing of mst [DRSC20582] resulted in: z-score, replicate 1 = -0.2.
With knock-down of fd59A [DRSC04685] the results were z-score, replicate 1 = -0.3.
With knock-down of CG34168 [DRSC01938] the results were z-score, replicate 1 = 2.6.
CG32544 [DRSC20033] scored z-score, replicate 1 = 0.5.
Against CG12825 [DRSC06174], the values are z-score, replicate 1 = -0.3.
Depletion of Atg4b [DRSC15988] gave: z-score, replicate 1 = -0.4.
CG12824 [DRSC06173] showed z-score, replicate 1 = -0.3.
Silencing of crc [DRSC03513] came out at: z-score, replicate 1 = 2.9.
CG12343 [DRSC06135] showed z-score, replicate 1 = -0.3.
With knock-down of AP-2alpha [DRSC00800], the screen gave z-score, replicate 1 = -0.6.
For Cyp4ac3 [DRSC03304] the deposit lists z-score, replicate 1 = -0.3.
CG32069 + Blos2 [DRSC10621] scored z-score, replicate 1 = -0.5.
Lcp9 [DRSC04287] scored z-score, replicate 1 = 0.3.
With knock-down of CG13133 [DRSC02230], the screen gave z-score, replicate 1 = -0.2.
Against nAChRalpha5 [DRSC01360] the deposit lists z-score, replicate 1 = 0.3.
nAChRalpha5 [DRSC01946] gave z-score, replicate 1 = -0.3.
nAChRalpha5 [DRSC01947] gave z-score, replicate 1 = -0.2.
For tHMG1 [DRSC16181], the entry reads z-score, replicate 1 = -0.3.
Against Lam [DRSC03359] the deposit lists z-score, replicate 1 = 0.2.
After knock-down of TfIIA-L [DRSC16882] the results were z-score, replicate 1 = 0.
Depletion of Nipped-A [DRSC04882] came out at: z-score, replicate 1 = -0.3.
For Nipped-A [DRSC04883] the deposit lists z-score, replicate 1 = 0.7.
Depletion of Nipped-A [DRSC04884] gave: z-score, replicate 1 = 1.2.
With knock-down of Nipped-A [DRSC07738], the record shows z-score, replicate 1 = 0.1.
With knock-down of CG1233 [DRSC08269], the record shows z-score, replicate 1 = -0.2.
Against lilli [DRSC00708], the entry reads z-score, replicate 1 = 1.
Depletion of RpS5b [DRSC16173] came out at: z-score, replicate 1 = 0.
CG2126 [DRSC15418] scored z-score, replicate 1 = -0.3.
lmd [DRSC15618] scored z-score, replicate 1 = -0.2.
Knock-down of eas [DRSC20329] came out at: z-score, replicate 1 = -0.4.
Depletion of CG15357 [DRSC00387] came out at: z-score, replicate 1 = 0.2.
Orc1 [DRSC07496] gave z-score, replicate 1 = 0.6.
Bili [DRSC14405] gave z-score, replicate 1 = 0.4.
Knock-down of CG31759 [DRSC01230] came out at: z-score, replicate 1 = 0.5.
Against wds [DRSC18852] the deposit lists z-score, replicate 1 = -0.1.
CG10801 [DRSC17761] showed z-score, replicate 1 = -0.2.
With knock-down of Svip [DRSC08982], the record shows z-score, replicate 1 = -0.1.
For Fbxl4 [DRSC19805], the values are z-score, replicate 1 = -0.3.
Silencing of Toll-7 [DRSC07563] resulted in: z-score, replicate 1 = -0.4.
Knock-down of CG14968 [DRSC08427] resulted in: z-score, replicate 1 = 0.

3 of these entries, reformatted:
Orc1 [DRSC07496]
- z-score, replicate 1: 0.6

Bili [DRSC14405]
- z-score, replicate 1: 0.4

CG31759 [DRSC01230]
- z-score, replicate 1: 0.5
